# Measured values as given in publication doi:10.1101/042119.
# By UniProt entry, the sequences of proteins in these tests, tags left out.
# UniProt Q13263: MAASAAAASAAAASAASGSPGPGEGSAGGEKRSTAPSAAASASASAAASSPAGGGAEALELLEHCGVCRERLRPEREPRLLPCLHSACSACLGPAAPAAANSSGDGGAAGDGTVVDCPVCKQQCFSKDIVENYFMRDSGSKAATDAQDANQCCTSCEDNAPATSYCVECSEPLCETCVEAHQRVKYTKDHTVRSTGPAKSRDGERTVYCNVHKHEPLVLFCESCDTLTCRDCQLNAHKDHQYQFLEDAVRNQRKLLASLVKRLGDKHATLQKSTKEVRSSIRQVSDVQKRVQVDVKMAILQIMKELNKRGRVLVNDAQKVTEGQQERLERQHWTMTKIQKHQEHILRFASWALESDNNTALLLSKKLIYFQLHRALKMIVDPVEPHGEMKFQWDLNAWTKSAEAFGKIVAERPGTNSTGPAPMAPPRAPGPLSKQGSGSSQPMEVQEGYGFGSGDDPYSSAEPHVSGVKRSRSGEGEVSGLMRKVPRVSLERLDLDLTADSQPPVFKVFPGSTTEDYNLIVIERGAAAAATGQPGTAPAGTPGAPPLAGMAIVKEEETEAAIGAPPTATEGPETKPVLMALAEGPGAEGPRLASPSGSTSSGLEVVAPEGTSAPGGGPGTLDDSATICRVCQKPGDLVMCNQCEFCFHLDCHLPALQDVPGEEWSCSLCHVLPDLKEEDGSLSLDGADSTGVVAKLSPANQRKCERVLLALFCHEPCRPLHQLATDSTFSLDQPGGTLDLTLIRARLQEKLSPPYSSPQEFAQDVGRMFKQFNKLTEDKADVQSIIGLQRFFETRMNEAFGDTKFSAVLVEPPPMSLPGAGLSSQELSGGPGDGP
# No constants are given. Whether binding was seen depends on the method and setting. Binding seen in cells or lysates may run through a third protein. Some entries that bind do so weakly or less than the wild type. Sequences can lack the tags named with a protein.
# Target: T1, EGFP-Wip1 (UniProt O15297)
# T1 sequence: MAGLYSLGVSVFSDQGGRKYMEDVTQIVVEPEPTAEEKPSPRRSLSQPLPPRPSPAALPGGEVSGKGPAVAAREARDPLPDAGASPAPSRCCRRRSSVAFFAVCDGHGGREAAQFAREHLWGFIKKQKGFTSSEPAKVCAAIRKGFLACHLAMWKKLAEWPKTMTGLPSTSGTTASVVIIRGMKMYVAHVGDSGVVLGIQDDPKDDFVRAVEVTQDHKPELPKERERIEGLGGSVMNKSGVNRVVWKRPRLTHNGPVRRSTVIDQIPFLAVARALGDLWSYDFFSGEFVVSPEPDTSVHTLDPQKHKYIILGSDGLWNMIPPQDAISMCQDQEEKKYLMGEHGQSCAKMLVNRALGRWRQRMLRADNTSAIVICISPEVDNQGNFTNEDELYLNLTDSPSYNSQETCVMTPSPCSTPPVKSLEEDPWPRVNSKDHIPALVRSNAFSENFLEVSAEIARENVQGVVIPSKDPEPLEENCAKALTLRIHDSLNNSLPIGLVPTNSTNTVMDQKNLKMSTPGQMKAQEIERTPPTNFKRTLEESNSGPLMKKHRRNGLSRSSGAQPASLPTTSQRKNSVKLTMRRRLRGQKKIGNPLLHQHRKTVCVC
# Assay: co-IP
substance,measurement,value
Endogenous KAP1 (from UniProt Q13263 1-835),binding,binds
